According to PMC5979328, “Establishing a Split Luciferase Assay for Proteinkinase G (PKG) Interaction Studies” (International Journal of Molecular Sciences, 2018):
These are yes or no findings as the source states them, for the method shown. In cells and extracts the contact can be indirect. Some entries that bind do so weakly or less than the wild type. Where a sequence is shown, tags or fusion partners need not be part of it.

Molecular target: T1, CBRC-cGKIα (proteinkinase G isoform Iα fused at its N-terminus to the C-terminal fragment of click beetle red luciferase) (UniProt P00516)
T1 sequence: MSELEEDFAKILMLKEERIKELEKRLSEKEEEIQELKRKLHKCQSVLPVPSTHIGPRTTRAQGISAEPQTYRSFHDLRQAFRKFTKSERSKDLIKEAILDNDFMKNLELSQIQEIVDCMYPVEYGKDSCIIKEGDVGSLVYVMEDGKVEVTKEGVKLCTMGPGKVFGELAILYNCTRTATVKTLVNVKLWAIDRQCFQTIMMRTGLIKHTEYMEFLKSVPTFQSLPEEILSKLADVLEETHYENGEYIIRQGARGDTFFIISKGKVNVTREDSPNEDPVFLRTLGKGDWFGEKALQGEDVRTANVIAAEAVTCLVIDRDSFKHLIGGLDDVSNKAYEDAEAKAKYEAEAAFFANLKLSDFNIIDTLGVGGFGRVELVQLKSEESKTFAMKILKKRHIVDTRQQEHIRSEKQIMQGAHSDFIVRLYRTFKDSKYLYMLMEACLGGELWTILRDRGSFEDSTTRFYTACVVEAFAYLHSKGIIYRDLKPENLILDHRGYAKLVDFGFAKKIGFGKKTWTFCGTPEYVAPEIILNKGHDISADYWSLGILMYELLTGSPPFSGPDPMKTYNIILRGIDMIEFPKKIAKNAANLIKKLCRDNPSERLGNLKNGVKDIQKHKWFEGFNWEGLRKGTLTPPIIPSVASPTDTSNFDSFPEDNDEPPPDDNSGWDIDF
Assay: split reporter; click beetle red luciferase complementation (CBRN/CBRC) in co-transfected COS-7 cells, 15 µg DNA, vector ratios 1:25 to 1:100 (mostly 1:50); cells untreated or stimulated for 24 h with 8-Br-cGMP (0.5-2.5 mM), 8-pCPT-cGMP (100-500 µM) or 8-Br-cAMP (0.125-1 mM); Bright-Glo reagent, plate reader, RLU

binding: binds
B1: CBRN-RGS2 (regulator of G-protein signaling 2 fused at its N-terminus to the N-terminal fragment of click beetle red luciferase) (natural protein, UniProt P41220 1-211, looked up)
chain: MQSAMFLAVQHDCRPMDKSAGSGHKSEEKREKMKRTLLKDWKTRLSYFLQNSSTPGKPKTGKKSKQQAFIKPSPEEAQLWSEAFDELLASKYGLAAFRAFLKSEFCEENIEFWLACEDFKKTKSPQKLSSKARKIYTDFIEKEAPKEINIDFQTKTLIAQNIQEATSGCFTTAQKRVYSLMENNSYPRFLESEFYQDLCKKPQITTEPHAT
notes: regulator of G-protein signaling 2 (RGS2); cDNA from pCMV6_RGS2 (OriGene); source: COS-7 cells, calcium phosphate transfection, in living cells; not shown: CBRN (click beetle red luciferase aa 1-416; joined by a 17-residue Gly/Ser linker), N-terminal, kept
